doi:10.1101/233213

What was measured:
[1] = target: T1, GlyT2 (neuronal glycine transporter 2), wild type (rat) (UniProt P58295); test: co-IP
T1 sequence: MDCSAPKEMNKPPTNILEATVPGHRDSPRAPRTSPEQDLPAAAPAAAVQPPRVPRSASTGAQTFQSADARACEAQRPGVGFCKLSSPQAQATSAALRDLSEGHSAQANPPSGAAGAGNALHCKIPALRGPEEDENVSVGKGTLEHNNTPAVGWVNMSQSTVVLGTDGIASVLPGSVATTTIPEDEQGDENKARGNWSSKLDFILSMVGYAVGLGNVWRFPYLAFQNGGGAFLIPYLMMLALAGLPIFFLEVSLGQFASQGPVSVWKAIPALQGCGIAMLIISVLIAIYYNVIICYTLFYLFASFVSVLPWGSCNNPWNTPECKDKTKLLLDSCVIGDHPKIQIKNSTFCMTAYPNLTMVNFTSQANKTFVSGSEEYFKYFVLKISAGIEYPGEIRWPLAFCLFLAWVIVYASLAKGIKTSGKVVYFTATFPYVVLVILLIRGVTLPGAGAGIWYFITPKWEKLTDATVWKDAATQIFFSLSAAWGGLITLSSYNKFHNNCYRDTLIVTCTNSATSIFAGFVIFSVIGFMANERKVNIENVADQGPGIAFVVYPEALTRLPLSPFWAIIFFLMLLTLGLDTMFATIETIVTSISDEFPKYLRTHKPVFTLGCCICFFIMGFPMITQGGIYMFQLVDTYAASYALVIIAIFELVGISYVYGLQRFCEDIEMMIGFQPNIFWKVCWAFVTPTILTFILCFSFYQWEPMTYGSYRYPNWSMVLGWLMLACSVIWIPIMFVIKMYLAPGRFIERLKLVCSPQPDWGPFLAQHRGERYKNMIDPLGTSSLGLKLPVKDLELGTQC

Myc-tagged p70-LNX1 = test: co-IP
[2] = target: GST fused to the N-terminus of GlyT2 (rat); test: pull-down

Molecule: Myc-tagged p70-LNX1
- binding [1]: binds

B1: GlyT2 (neuronal glycine transporter 2), wild type (protein, UniProt P58295 1-799)
chain: T1 sequence
- binding (Myc-tagged p70-LNX1): binds

B2: FLAG-tagged p80-LNX1 (Ligand of Numb protein X1, isoform p80) (enzyme, UniProt O70263 1-728)
chain: MNQPDLADDPDPSPEPLCIVCGQNHSPEENHFYTYTEDVDDDLICHICLQALLDPLDTPCGHTYCTLCLTNFLVEKDFCPVDRKPVVLQHCKKSSILVNKLLNKLLVTCPFTEHCTEVLQRCDLQHHFQTSCKGASHYGLTKDRKRRSQDGCPDGCASLMATTLSPEVSAAATISLMTDEPGLDNPAYVSSVEDGEPVANSSDSGRSNRTRARPFERSTMRSRSFKKINRALSALRRTKSGSVVANHVDQGRDNSENTTVPEVFPRLFHLIPDGEITSIKINRADPSESLSIRLVGGSETPLVHIIIQHIYRDGVIARDGRLLPGDIILKVNGMDISNVPHNYAVRLLRQPCQVLRLTVLREQKFRSRSNAHVPDSYGPRDDSFHVILNKSSPEEQLGIKLVRRVDEPGVFIFNVLNGGVADRHGQLEENDRVLAINGHDLRFGSPESAAHLIQASERRVHLVVSRQVRQSSPDIFQEAGWISNGQQSPGPGERNTASKPAATCHEKVVSVWKDPSESLGMTVGGGASHREWDLPIYVISVEPGGVISRDGRIKTGDILLNVNGIELTEVSRTEAVAILKSAPSSVVLKALEVKEQEAQEDCSPAALDSNHNVTPPGDWSPSWVMWLELPQYLCNCKDVILRRNTAGSLGFCIVGGYEEYSGNKPFFIKSIVEGTPAYNDGRIRCGDILLAVNGRSTSGMIHACLARMLKELKGRITLTIASWPGTFL
- binding [2]: no binding

These are yes or no findings as the source states them, for the method shown. Binding seen in cells or lysates may run through a third protein. For part of these data: Binding can be weak; no strength is given. For part of these data: Tags and fused reporters may be left off the sequences shown.
